Data set [1] relates to wastewater microorganisms. The data set can be described thus: Closed bottle test (OECD guideline 301 D), aerobic biodegradability. Particulars: 3 mg L^−1, BOD/ThOD, mean ± SD (n = 3).
Data set [2] concerns wastewater microorganisms. The data set can be described thus: CO2 headspace test (ISO 14593), aerobic biodegradability. The note with it: 20 mg C L^-1, % of ThIC, mean ± SD.
[3] abbreviates: 14 days, listed as sodium benzoate.

Where “and” joins values, the source holds several entries; their conditions need not be identical. Identical values can stand only once.

For `C[N+](C)(C)CCO.NC(=O)CC[C@H](N)C(=O)[O-]` [[Ch][Gln]], the “Biodegradability (%)” value is recorded as 58.5±2.3% in data set [1] (7 days); 80.5±0.7% in data set [1] (14 days); 83.8±1.5% in data set [1] (21 days); 86.6±1.4% in data set [1] (28 days); 57.0 ± 0.6% in data set [2] (7 days); 78.0 ± 0.6% in data set [2] (14 days). Also, the “Biodegradability (%)” value in data set [2] (21 days) was determined as 78.3 ± 0.6%; in data set [2] (28 days), 81.4 ± 0.1%.

On to `C[N+](C)(C)CCO.N[C@@H](Cc1cnc[nH]1)C(=O)[O-]` [[Ch][His]], for which the “Biodegradability (%)” value is given as 46.5±3.5% in data set [1] (7 days); 60.1±1.2% in data set [1] (14 days); 63.4±0.0% in data set [1] (21 days); 65.3±1.3% in data set [1] (28 days); 51.1 ± 1.2% in data set [2] (7 days); 60.5 ± 0.3% in data set [2] (14 days). For the same compound, the “Biodegradability (%)” value in data set [2] (21 days) was 61.1 ± 0.5%; in data set [2] (28 days), 63.3 ± 1.2%.

With `C[N+](C)(C)CCO.N[C@@H](CCC(=O)O)C(=O)[O-]` [[Ch][Glu]], the “Biodegradability (%)” value in data set [1] (7 days) is recorded as 70.0±0.1%; in data set [1] (14 days), 71.3±1.1%; in data set [1] (21 days), 83.1±1.4%; in data set [1] (28 days) it was 86.3±0.2%; in data set [2] (7 days) it was 62.2 ± 0.4%; in data set [2] (14 days) it was 71.9 ± 1.1%. Moreover, the “Biodegradability (%)” value in data set [2] (21 days) is on record as 78.0 ± 0.3%; in data set [2] (28 days) it was 80.8 ± 0.5%.

As for `C[N+](C)(C)CCO.N[C@@H](Cc1ccccc1)C(=O)[O-]` [[Ch][Phe]], the “Biodegradability (%)” value in data set [1] (7 days) was 44.0±0.2%; in data set [1] (14 days), 68.8±0.2%; in data set [1] (21 days), 71.0±1.1%; in data set [1] (28 days), 71% and 70.8±0.1%; in data set [2] (7 days), 42.0 ± 0.5%; in data set [2] (14 days), 60.1 ± 0.3%. Also, the “Biodegradability (%)” value is 71.4 ± 1.1% in data set [2] (21 days) and 72.5 ± 0.3% in data set [2] (28 days).

Turning to `CC(=O)[O-].C[N+](C)(C)CCO` [[Ch][AcO], Cholinium acetate, reference compound], the “Biodegradability (%)” value was 46.7±0.4% in data set [1] (7 days); 63.6±0.8% in data set [1] (14 days); 66.5±0.5% in data set [1] (21 days); 68.1±1.9% in data set [1] (28 days); 47.2 ± 0.3% in data set [2] (7 days); 60.4 ± 0.2% in data set [2] (14 days). For the same compound, the “Biodegradability (%)” value in data set [2] (21 days) amounted to 63.3 ± 0.5%; in data set [2] (28 days), 65.3 ± 0.1%.

As to `C[C@@H](O)[C@H](N)C(=O)[O-].C[N+](C)(C)CCO` [[Ch][Thr]], the “Biodegradability (%)” value was 44.6±2.3% in data set [1] (7 days); 64.9±1.7% in data set [1] (14 days); 70.0±1.1% in data set [1] (21 days); 74% and 74.3±1.5% in data set [1] (28 days); 36.0 ± 0.4% in data set [2] (7 days); 63.7 ± 1.1% in data set [2] (14 days). Also, the results for the “Biodegradability (%)” value in data set [2] (21 days) and in data set [2] (28 days) were 69.5 ± 0.5% and 71.5 ± 0.8%, respectively.

Consider `C[N+](C)(C)CCO.NCC(=O)[O-]` [[Ch][Gly]], for which the “Biodegradability (%)” value in data set [1] (7 days) is 58.3±2.3%; in data set [1] (14 days), 72.3±0.1%; in data set [1] (21 days), 75.0±1.2%; in data set [1] (28 days), > 80% and 82.6±1.1%; in data set [2] (7 days) it was 57.8 ± 0.3%; in data set [2] (14 days), 66.3 ± 0.6%. For the same compound, the “Biodegradability (%)” value in data set [2] (21 days) worked out at 74.6 ± 0.4%; in data set [2] (28 days) it was 76.4 ± 1.1%.

Take `C[C@H](N)C(=O)[O-].C[N+](C)(C)CCO` [[Ch][Ala]]: the “Biodegradability (%)” value is 61.9±0.8% in data set [1] (7 days); 66.8±0.1% in data set [1] (14 days); 77.6±1.2% in data set [1] (21 days); > 80% and 80.0±0.4% in data set [1] (28 days); 62.0 ± 0.6% in data set [2] (7 days); 70.5 ± 0.3% in data set [2] (14 days). Moreover, the “Biodegradability (%)” value in data set [2] (21 days) was determined as 74.2 ± 0.7%; in data set [2] (28 days), 76.2 ± 0.8%.

Turning to `C[N+](C)(C)CCO.N[C@@H](CO)C(=O)[O-]` [[Ch][Ser]], the “Biodegradability (%)” value was 53.8±2.2% in data set [1] (7 days); 72.0±0.7% in data set [1] (14 days); 73.5±1.7% in data set [1] (21 days); 80.6±1.5% in data set [1] (28 days); 52.5 ± 0.1% in data set [2] (7 days); 65.8 ± 0.1% in data set [2] (14 days). Moreover, the “Biodegradability (%)” value in data set [2] (21 days) is 73.3 ± 1.1%; in data set [2] (28 days), 74.7 ± 0.3%.

On to `C[N+](C)(C)CCO.O=C([O-])[C@@H]1CCCN1` [[Ch][Pro]], for which the “Biodegradability (%)” value in data set [1] (7 days) turned out to be 58.0±0.9%; in data set [1] (14 days), 66.4±0.1%; in data set [1] (21 days) it was 68.5±0.9%; in data set [1] (28 days) it was 71.3±0.1%; in data set [2] (7 days) it was 50.5 ± 2.1%; in data set [2] (14 days), 65.5 ± 0.3%. The “Biodegradability (%)” value stood at 67.2 ± 6.7% in data set [2] (21 days) and 70.5 ± 3.0% in data set [2] (28 days).

`C[N+](C)(C)CCO.NCCCC[C@H](N)C(=O)[O-]` [[Ch][Lys]]: the “Biodegradability (%)” value in data set [1] (7 days) is 54.4±3.7%; in data set [1] (14 days), 62.4±0.4%; in data set [1] (21 days) it was 65.9±1.0%; in data set [1] (28 days), 67.7±1.0%; in data set [2] (7 days), 52.2 ± 0.2%; in data set [2] (14 days), 61.6 ± 1.2%. Also, the “Biodegradability (%)” value in data set [2] (21 days) is 63.1 ± 0.4%; in data set [2] (28 days), 64.7 ± 0.5%.

In the case of `O=C([O-])c1ccccc1.[Na+]` [Sodium benzoate, reference compound], the “Biodegradability (%)” value is listed as 60.1±0.2% in data set [1] (7 days); 75.0±1.0% in data set [1] (14 days); over 75% in data set [1] (setting [3]); 78.5±0.6% in data set [1] (21 days); 81.1±0.8% in data set [1] (28 days); 57.0 ± 3.5% in data set [2] (7 days). In addition, the “Biodegradability (%)” value in data set [2] (14 days) is 80.8 ± 0.1%; in data set [2] (setting [3]), over 75%; in data set [2] (21 days), 83.3 ± 0.6%; in data set [2] (28 days), 84.1 ± 1.3%.

On to `CCC(C)C(N)C(=O)[O-].C[N+](C)(C)CCO` (stereo not shown) [[Ch][Ile]], for which the “Biodegradability (%)” value in data set [1] (7 days) turned out to be 57.3±2.4%; in data set [1] (14 days), 68.4±0.1%; in data set [1] (21 days) it was 70.5±0.3%; in data set [1] (28 days) it was 71.6±0.8%; in data set [2] (7 days), 52.2 ± 0.3%; in data set [2] (14 days) it was 66.1 ± 0.3%. Moreover, the “Biodegradability (%)” value in data set [2] (21 days) is recorded as 68.3 ± 0.5%; in data set [2] (28 days), 70.5 ± 0.3%.

`C[N+](C)(C)CCO.N[C@@H](Cc1c[nH]c2ccccc12)C(=O)[O-]` [[Ch][Trp]]: the “Biodegradability (%)” value in data set [1] (7 days) was 55.1±1.1%; in data set [1] (14 days) it was 60.2±0.6%; in data set [1] (21 days), 62.7±1.1%; in data set [1] (28 days), 66% and 65.9±0.2%; in data set [2] (7 days), 53.0 ± 0.5%; in data set [2] (14 days), 60.7 ± 1.5%. The “Biodegradability (%)” value in data set [2] (21 days) is 61.3 ± 0.3%; in data set [2] (28 days) it was 62% and 62.1 ± 0.3%.

Take `C[N+](C)(C)CCO.C[N+](C)(C)CCO.N[C@@H](CC(=O)[O-])C(=O)[O-]` [[Ch][Asp]]: the “Biodegradability (%)” value in data set [1] (7 days) is reported as 68.9±1.2%; in data set [1] (14 days), 79.5±0.6%; in data set [1] (21 days) it was 86.5±0.5%; in data set [1] (28 days), 87.1±0.6%; in data set [2] (7 days) it was 65.8 ± 0.1%; in data set [2] (14 days), 78.9 ± 0.3%. The “Biodegradability (%)” value in data set [2] (21 days) is listed as 80.5 ± 0.0%; in data set [2] (28 days), 82.4 ± 0.7%.

With `C[N+](C)(C)CCO.N=C(N)NCCC[C@H](N)C(=O)[O-]` [[Ch][Arg]], the “Biodegradability (%)” value in data set [1] (7 days) is on record as 59.6±2.3%; in data set [1] (14 days), 62.3±0.9%; in data set [1] (21 days), 65.3±0.1%; in data set [1] (28 days), 67.6±0.2%; in data set [2] (7 days), 53.0 ± 0.5%; in data set [2] (14 days), 61.7 ± 1.0%. Besides, the figures for the “Biodegradability (%)” value in data set [2] (21 days) and in data set [2] (28 days) were 63.6 ± 0.8% and 65.5 ± 1.2%, respectively.

Consider `CSCC[C@H](N)C(=O)[O-].C[N+](C)(C)CCO` [[Ch][Met]], for which the “Biodegradability (%)” value in data set [1] (7 days) was 54.3±0.3%; in data set [1] (14 days) it was 63.7±0.1%; in data set [1] (21 days), 64.7±0.3%; in data set [1] (28 days), 66.1±0.9%; in data set [2] (7 days) it was 47.8 ± 0.3%; in data set [2] (14 days) it was 56.6 ± 0.9%. Also, the results for the “Biodegradability (%)” value in data set [2] (21 days) and in data set [2] (28 days) were 62.7 ± 1.1% and 63.6 ± 1.2%, respectively.

For the compound `C[N+](C)(C)CCO.NC(=O)C[C@H](N)C(=O)[O-]` [[Ch][Asn]], the “Biodegradability (%)” value in data set [1] (7 days) is recorded as 53.9±0.5%; in data set [1] (14 days) it was 71.8±1.1%; in data set [1] (21 days) it was 85.7±0.7%; in data set [1] (28 days), 87.1±1.2%; in data set [2] (7 days), 67.2 ± 0.3%; in data set [2] (14 days) it was 80.0 ± 0.3%. Moreover, the “Biodegradability (%)” value in data set [2] (21 days) was 83.3 ± 0.6%; in data set [2] (28 days), 85.2 ± 0.1%.

Regarding `CC(C)[C@H](N)C(=O)O` [[Ch][Val]], the “Biodegradability (%)” value in data set [1] (7 days) was 49.6±0.1%; in data set [1] (14 days), 61.3±0.8%; in data set [1] (21 days), 65.6±0.5%; in data set [1] (28 days) it was 69% and 69.4±0.6%; in data set [2] (7 days), 46.4 ± 0.4%; in data set [2] (14 days) it was 59.4 ± 0.8%. The entries for the “Biodegradability (%)” value in data set [2] (21 days) and in data set [2] (28 days) were 64.1 ± 0.3% and 67.5 ± 0.6%, respectively.

The values are drawn from PMC3598705, “Evaluation of Toxicity and Biodegradability of Cholinium Amino Acids Ionic Liquids” (PLoS ONE, 2013).
